# Record: PubChem BioAssay AID652248 (Drosophila RNAi Screening Center, 2013)
# Purpose: 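Kinases and phosphatases whose loss pushes fly blood cells toward elongated shapes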 (primary screen)
# System: cultured Drosophila hemocytes
# Knock-down reagent: long dsRNA against Drosophila genes
# Measured: 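Automated microscopy of stained actin, tubulin and nuclei; single-cell shape measures assigned to five reference shape types, giving a score per dsRNA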
# Reading the numbers: elongated score: higher = more elongated bipolar cells; normal round score: higher = more normal rounded cells
# Call rule: 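Hits show a significant increase of elongated cells; higher rank given where elongated cells rose as other shape types fell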
# The deposit covers 863 reagents; shown is an unselected part. 32 of all reagents (3.7%) were called active. 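Calls also used reproducibility and a similarity ranking whose scores are not deposited; many active genes show only modest elongated scores.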 A number with no mark means an inactive call. The numbers tell different reagents against one gene apart. A plus sign joins genes that one reagent is predicted to hit. Not all columns of the deposit are shown. No sequences are given here. The record does not give: the amount of reagent, the time to read-out.
gene,dsRNA no.,"elongated score, rep 1","elongated score, rep 2","normal round score, rep 1"
csw (GeneID 45278),1,0.97,,1.17
csw (GeneID 45278),2,1.21,,1.27
PpD5 (GeneID 44148),1,-0.53,,-1.14
PpD5 (GeneID 44148),2,0.86,,-2.63
Pk34A (GeneID 34705),1,-0.53,,0.62
Pk34A (GeneID 34705),2,-0.53,,-0.57
Pkc98E (GeneID 43428),1,0.19,,-0.09
Pkc98E (GeneID 43428),2,-0.27,,-1.51
Adck1 (GeneID 37938),1,-0.07,,-0.07
Sk2 (GeneID 326219),1,-0.31,,-0.11
Pdk (GeneID 35970),1,0.02,,-0.3
asp (GeneID 42946),1,-0.26,,-0.43
dop (GeneID 39686),1,-0.32 (active),,0.38
dop (GeneID 39686),2,6.42 (active),,-3.65
Raf (GeneID 31221),1,-0.53,,0.38
Raf (GeneID 31221),2,0.63,,-0.57
alc (GeneID 35931),1,-0.53,,0.42
alc (GeneID 35931),2,0.93,,-1.08
alc (GeneID 35931),3,-0.53,,-3.52
Sik3 (GeneID 37152),1,1.85,,-4.61
Sik3 (GeneID 37152),2,3.77,,-1.95
Pfrx (GeneID 32938),1,-0.15,,0.04
Pfrx (GeneID 32938),2,0.8,,-0.6
Pfrx (GeneID 32938),3,-0.39,,0.12
Gcn2 (GeneID 43709),1,0.21,0.97,-0.81
2mit (GeneID 41616),1,-0.53,,-0.81
CG7378 (GeneID 32888),1,-0.53,,0.23
Wee1 (GeneID 33965),1,-0.41,,-0.81
Wee1 (GeneID 33965),2,-0.12,,-1.93
CG5026 (GeneID 39026),1,-0.1,,0.3
spag (GeneID 43958),1,-0.53,,-0.16
bma (GeneID 5740442),1,0.94,,-0.62
bma (GeneID 5740442),2,0.31,,-0.6
Pp2A-29B (GeneID 2768940),1,-0.07,,-1.02
Pp2A-29B (GeneID 2768940),2,9.2,,-5.02
Alp11 (GeneID 32496),1,-0.53,,-0.06
CG10702 (GeneID 35181),1,0.67,,-1.25
Tsen54 (GeneID 39397),1,-0.53,,0.57
Tsen54 (GeneID 39397),2,-0.17,,-0.32
KP78a + KP78b,1,0.38,,0.25
KP78a + KP78b,2,-0.53,,0.74
KP78a + KP78b,3,-0.53,,-2.46
KP78a + KP78b,4,0.31,,-0.09
KP78a + KP78b,5,2.8,,-1.28
Rok (GeneID 43916),1,3.54,,-4.2
Rok (GeneID 43916),2,0.43,,-1.96
sff (GeneID 39732),1,0.89,,-0.86
aux (GeneID 40527),1,-0.03,,-1.45
aux (GeneID 40527),2,0.28,,-1.14
Pkc53E (GeneID 48311),1,0.65,,-0.26
PKD (GeneID 42203),1,-0.53,,0.86
Alp4 (GeneID 43671),1,-0.25,,0.6
otk (GeneID 36283),1,-0.53,,0.82
otk (GeneID 36283),2,2.67,,-1.49
CG11597 (GeneID 39337),1,-0.53,,0.24
PPP4R2r (GeneID 31979),1,1.41,-0.31,-1.04
PPP4R2r (GeneID 31979),2,1,,-1.36
PPP4R2r (GeneID 31979),3,1.18,,-2.16
wun (GeneID 35966),1,0.74,,-0.18
IKKbeta (GeneID 44432),1,-0.33,,0.17
Takl2 (GeneID 42692),1,-0.53,,0.91
Pgk (GeneID 33461),1,-0.24,,0.51
Pgk (GeneID 33461),2,-0.32,,0.28
Pgk (GeneID 33461),3,0.12,,-0.52
IP3K1 (GeneID 34300),1,0.01,,-0.06
Mipp1 (GeneID 39841),1,0.32,,0.16
Ptp69D (GeneID 39443),1,-0.53,,0.18
CG6805 (GeneID 36911),1,-0.53,,-0.21
CG6805 (GeneID 36911),2,0.84,,-1.26

Just “elongated score, rep 1”, for 11 of the entries above:
KP78a + KP78b #3 = -0.53
KP78a + KP78b #4 = 0.31
KP78a + KP78b #5 = 2.8
Rok (GeneID 43916) #1 = 3.54
Rok (GeneID 43916) #2 = 0.43
sff (GeneID 39732) = 0.89
aux (GeneID 40527) #1 = -0.03
aux (GeneID 40527) #2 = 0.28
Pkc53E (GeneID 48311) = 0.65
PKD (GeneID 42203) = -0.53
Alp4 (GeneID 43671) = -0.25
